± gives the standard deviation. This is a selection; strong and weak results do not stand in their true shares. Many entries were measured with a wide error.

This assay deals with EfPiwi piRISC loaded with piRNA #1 (26 nt). Description: pre-steady-state target cleavage rate (min^-1); guide: piRNA #1 5'p-UGAGGUAGUAGGUUGUAUAGUAUCCA; MIWI and MILI are mouse PIWI proteins and EfPiwi is from a freshwater sponge; tags in brackets are library labels; higher = faster piRNA-guided slicing of the target. As to conditions: auxiliary factor: 500 nM Ephydatia muelleri Gtsf1. In outline: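 A transcribed, DNA-blocked target RNA library (0.1 nM) and 1 nM active affinity-purified piRISC bearing one synthetic guide were incubated in HEPES–potassium acetate buffer at 33 °C for 0–8 or 0–960 min, either with or without 500 nM GTSF1 partner protein. Uncleaved targets were sequenced, normalised to depth and to weakly complementary targets, and pooled over three trials, with k3 capped at 0.0001 min^-1. The pre-steady-state cleavage rate was derived with a burst-and-steady-state fit.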
For GGAGACCUUACUAUACAACCUACUACCUUCA, the “pre-steady-state target cleavage rate” value worked out at 0.0532 ± 0.019. As for GGAGACCUAUGAUUACAACCUACUAGGUCA, the figure is 0.00089 ± 0.0052; as for GGAGACGAAUCUAUACAACCUACUACCUCA, 0.0517 ± 0.018. For GGAGACGAUAUCUAUACAACCUACUACCUCA, the “pre-steady-state target cleavage rate” value was found to be 0.00603 ± 0.0041. Turning to GGAGACGAUACUAUCCAACCUACUACCUCA, the “pre-steady-state target cleavage rate” value was found to be 0.00717 ± 0.0028. Turning to GGAGACGAUACUAUAACAACCUACUACCUCA, the “pre-steady-state target cleavage rate” value came to 0.00793 ± 0.0029. Turning to GGAGACCUAACUAUGCAACCUACUACCUCA, the “pre-steady-state target cleavage rate” value is 0.00447 ± 0.0039.

Take GGAGACCUAACUAAACAACCUACAACCUCA: the “pre-steady-state target cleavage rate” value was found to be 0.000388 ± 0.018.

In the case of GGAGACCUAUCUAUACAACCUACUACAUCA, the “pre-steady-state target cleavage rate” value came out at 0.00393 ± 0.0044. With GGAGACCAUACUUUACAACGUACUACCUCA, the “pre-steady-state target cleavage rate” value came to 0.00315 ± 0.0034.

As to GGAGACCAUACUAUACUACCUACUACCUCA, the “pre-steady-state target cleavage rate” value was 0.00859 ± 0.0036. In the case of GGAGACCUAUCUAUACAUCCUACUUCCUCA, the “pre-steady-state target cleavage rate” value was found to be 0.00289 ± 0.0043. As to GGAGACCUAACUAAACAACCUACUAGCUCA, the “pre-steady-state target cleavage rate” value worked out at 0.000237 ± 0.015. On to GGAGACCUUACUAUACAACCUAGCUACCUCA, for which the “pre-steady-state target cleavage rate” value turned out to be 0.00326 ± 0.0038. With GGAGAGGAUACUAUUCAACCUACAACCUCA the figure was 0.00238 ± 0.0017; with GGAGAGGAUACUAUACAACCUACUUGCUCA, 0.00478 ± 0.0023; with GGAGACCAUUCUAUACAACCUAGUACCUCA, 0.00433 ± 0.0024.

In the case of GGAGACCUAUCUAUAGAACCUACUACCUCA, the “pre-steady-state target cleavage rate” value stood at 0.0013 ± 0.0043. As for GGAGACCUAACUAUACAACCUACAACCACA, the figure is 0.0026 ± 0.0076. As for GGAGACCUAACAAUACAACCUACUACCACA, the figure is 0.00114 ± 0.0093; as for GGAGACCUAUGAUAUGUUGCUACCACCUCA, 0.000353 ± 0.0058; as for “GGAGACCAUACUAUACAUGGAUGAUGGAGA [g14:g23:cont:t1A]”, 0.000301 ± 0.015.

Take GGAGAGGAUGCUAUACAACCUACUACCUCA: the “pre-steady-state target cleavage rate” value came out at 0.00971 ± 0.006. As for GGAGACCUAUGUAUGACAACCUACUACCUCA, the “pre-steady-state target cleavage rate” value is 0.0022 ± 0.0043. Consider GGAGAGGAUACUAUACAACCUACUACCCCA, for which the “pre-steady-state target cleavage rate” value is 0.00713 ± 0.0022.

Take GGAGUGGAUACUAUACAACCUACAUACCUCA: the “pre-steady-state target cleavage rate” value is 0.00344 ± 0.0016.

On to GGAGACCAUACUAUUCAACCUACUUCCUCA, for which the “pre-steady-state target cleavage rate” value amounted to 0.00483 ± 0.0048. Consider GGAGACCUAACUAUACAACCUACUAACCUCA, for which the “pre-steady-state target cleavage rate” value amounted to 0.00295 ± 0.0038. With GGAGACGAUACUAAAGAACCUACUACCUCA, the “pre-steady-state target cleavage rate” value amounted to 0.00268 ± 0.004.

Turning to GGAGACCAUACUAAACAACCUACAACCUCA, the “pre-steady-state target cleavage rate” value is 0.000693 ± 0.0062. For GGAGAGGAUACUAUACAACGUACUACCUCA, the “pre-steady-state target cleavage rate” value is 0.0053 ± 0.0021. Take GGAGACCUAACUAUACAAGCUACUAGCUCA: the “pre-steady-state target cleavage rate” value was determined as 0.00384 ± 0.0055. For the sequence GGAGACGAUACUAUACAACUUACUACCUCA, the “pre-steady-state target cleavage rate” value is 0.0183 ± 0.0077. On to GGAGACCUAACUAUUCAACCUACUACGUCA, for which the “pre-steady-state target cleavage rate” value was determined as 0.00137 ± 0.0065. With GGAGACCUAUGUAUACAACCUACUAGGUCA the figure was 0.00127 ± 0.0057; with GGAGACCUUACAAUACAACCUACUACCUCA, 0.0117 ± 0.0048. Regarding GGAGACCAUACAAAACAACCUACUACCUCA, the “pre-steady-state target cleavage rate” value stood at 0.00423 ± 0.0037.

Consider GGAGACGAUACUAUACAACCUACGUACCUCA, for which the “pre-steady-state target cleavage rate” value amounted to 0.00418 ± 0.0019.

Turning to GGAGACCUAUCUAUACUACCUACUACGUCA, the “pre-steady-state target cleavage rate” value stood at 0.000652 ± 0.0048. With GGAGACCUUACUAUACAACGUACUACCUCA the figure was 0.00318 ± 0.0019.

The values above are taken from the supplement of paper PMC10338343.
